Measured values reported in patent US20080026943A1, “Phenyl-Substituted [1,2]-Oxazine-3,5-Dione and Dihydropyrone Derivatives” (priority 2004, published 2008).
Some of these results come from one statement about several compounds together.

Key:
Format in all cases: in vivo
[1] = test system: caterpillars of the army worm (Spodoptera frugiperda); assay: Spodoptera frugiperda test (SPODFR), leaf immersion; details: 500 ppm; cabbage leaves immersed
[2] = test system: Meloidogyne incognita; assay: Meloidogyne test (MELGIN); details: 20 ppm; lettuce in sand
[3] = test system: greenhouse red spider mite (Tetranychus urticae); assay: Tetranychus test, OP-resistent (TETRUR), plant immersion; details: 100 ppm; bean plants immersed
[4] = test system: green peach aphid (Myzus persicae); assay: Myzus test (MYZUPE spray treatment); details: 500 g/ha; sprayed Chinese cabbage leaf discs
[5] = test system: larvae of the mustard beetle (Phaedon cochleariae); assay: Phaedon cochleariae - larvae test (PHAECO), leaf immersion; details: 500 ppm; cabbage leaves immersed

With `Cc1ccc(-c2ccc(Cl)cc2)cc1C1(Cl)C(=O)OC2CCCCC2(C)C1=O` (centres unmarked) [Example I-2-2] the “activity (kill rate in %)” value [1] was ≥ 80%, the “activity (nematicidal effect in % from the formation of galls)” value [2] was ≥ 80% and the “activity (effect in %, spider mites killed)” value [3] was ≥ 80%. For the same compound, the “activity (effect in %, aphids killed)” value [4] was ≥ 90% and the “activity (kill rate in %)” value [5] was ≥ 80%.
